Test results: paper PMC2363476 (British Journal of Cancer, 2000)

Test system: patients with advanced GI tract adenocarcinoma
Details: for dose intensity: dose level VI; for dose intensity (DI) for each drug, percentage of intended: dose levels I-VI
[1] = dose level VII, first six cycles

## CCc1c2c(nc3ccc(OC(=O)N4CCC(N5CCCCC5)CC4)cc13)-c1cc3c(c(=O)n1C2)COC(=O)[C@]3(O)CC [irinotecan, Irinotecan hydrochloride]
  dose intensity: over 90%
[1]
  irinotecan dose intensity (DI), percentage of intended: 83%
First six cycles
  dose intensity (DI) for each drug, percentage of intended: ~100%

## Cc1nc2ccc(CN(C)c3ccc(C(=O)N[C@@H](CCC(=O)O)C(=O)O)s3)cc2c(=O)[nH]1 [raltitrexed]
  dose intensity: over 90%
[1]
  raltitrexed dose intensity (DI), percentage of intended: 66%
First six cycles
  dose intensity (DI) for each drug, percentage of intended: ~100%

Counter-ions that a name gives are not always drawn.
